Values quoted from earlier work, collected in patent publication US5753636A, “Injection solution for intramuscular and subcutaneous administration to animals” (priority 1993, dated 1998).

Tested on: injection site
Settings: in vivo; cited from earlier work

For CC(=O)N(C)C [N,N-dimethylacetalide], the “local tolerability / irritation” value is listed as “highly irritant and have haemolytic effects”.
